Measured values as given in patent US6387902B1, “Phenazine compounds, methods and pharmaceutical compositions for inhibiting PARP” (Guilford Pharmaceuticals, Inc., priority 1998, dated 2002).

Test system: male Long-Evans rats
Experiment: Neuroprotective effect of DPQ on focal cerebral ischemia (MCA cauterization with bilateral CCA occlusion 90 min)
Assay type: in vivo, rat
Conditions: laser Doppler, control 20.8±7.7

## O=C1NCCc2c(OCCCCN3CCCCC3)cccc21 [DPQ, 3,4-dihydro-5-[4-(1-piperidinyl)-butoxy]-1(2H)-isoquinolinone]
5 mg/kg
  relative blood flow in the right parietal cortex during occlusion: 18.7±7.4 % of the baseline
10 mg/kg
  relative blood flow in the right parietal cortex during occlusion: 21.4±7.7 % of the baseline
40 mg/kg
  relative blood flow in the right parietal cortex during occlusion: 19.3±11.2 % of the baseline
